These are yes or no findings as the source states them, for the method shown. Binding seen in cells or lysates may run through a third protein. Some binding calls cover weakened binding; strength is not graded here. Sequences can lack the tags named with a protein.
How the values were obtained:
[1] = biological target: T1, FLAG-TRAF2, full length human Traf2 with N-terminal FLAG epitope tag (human) (UniProt Q12933); assay: co-immunoprecipitation: anti-HA IP, anti-FLAG blot, Phoenix-A cell lysates
T1 sequence: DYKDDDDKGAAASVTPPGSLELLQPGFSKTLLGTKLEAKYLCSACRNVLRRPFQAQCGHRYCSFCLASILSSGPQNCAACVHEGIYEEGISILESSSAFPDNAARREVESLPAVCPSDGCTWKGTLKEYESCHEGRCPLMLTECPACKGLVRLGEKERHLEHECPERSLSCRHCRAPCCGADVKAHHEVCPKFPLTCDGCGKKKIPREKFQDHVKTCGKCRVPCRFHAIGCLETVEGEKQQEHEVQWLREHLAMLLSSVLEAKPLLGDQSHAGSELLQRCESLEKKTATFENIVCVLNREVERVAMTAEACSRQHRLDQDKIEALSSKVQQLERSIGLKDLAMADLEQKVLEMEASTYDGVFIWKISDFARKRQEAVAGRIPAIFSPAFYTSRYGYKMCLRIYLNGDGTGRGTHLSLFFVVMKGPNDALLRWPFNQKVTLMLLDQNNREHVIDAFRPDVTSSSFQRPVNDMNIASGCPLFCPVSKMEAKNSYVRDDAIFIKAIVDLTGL

The chains behind the UniProt entries cited, without tags or fusion partners. Where a name states a change or a piece, a line headed by the entry shows the natural chain unless it says otherwise.
UniProt Q9UKE5: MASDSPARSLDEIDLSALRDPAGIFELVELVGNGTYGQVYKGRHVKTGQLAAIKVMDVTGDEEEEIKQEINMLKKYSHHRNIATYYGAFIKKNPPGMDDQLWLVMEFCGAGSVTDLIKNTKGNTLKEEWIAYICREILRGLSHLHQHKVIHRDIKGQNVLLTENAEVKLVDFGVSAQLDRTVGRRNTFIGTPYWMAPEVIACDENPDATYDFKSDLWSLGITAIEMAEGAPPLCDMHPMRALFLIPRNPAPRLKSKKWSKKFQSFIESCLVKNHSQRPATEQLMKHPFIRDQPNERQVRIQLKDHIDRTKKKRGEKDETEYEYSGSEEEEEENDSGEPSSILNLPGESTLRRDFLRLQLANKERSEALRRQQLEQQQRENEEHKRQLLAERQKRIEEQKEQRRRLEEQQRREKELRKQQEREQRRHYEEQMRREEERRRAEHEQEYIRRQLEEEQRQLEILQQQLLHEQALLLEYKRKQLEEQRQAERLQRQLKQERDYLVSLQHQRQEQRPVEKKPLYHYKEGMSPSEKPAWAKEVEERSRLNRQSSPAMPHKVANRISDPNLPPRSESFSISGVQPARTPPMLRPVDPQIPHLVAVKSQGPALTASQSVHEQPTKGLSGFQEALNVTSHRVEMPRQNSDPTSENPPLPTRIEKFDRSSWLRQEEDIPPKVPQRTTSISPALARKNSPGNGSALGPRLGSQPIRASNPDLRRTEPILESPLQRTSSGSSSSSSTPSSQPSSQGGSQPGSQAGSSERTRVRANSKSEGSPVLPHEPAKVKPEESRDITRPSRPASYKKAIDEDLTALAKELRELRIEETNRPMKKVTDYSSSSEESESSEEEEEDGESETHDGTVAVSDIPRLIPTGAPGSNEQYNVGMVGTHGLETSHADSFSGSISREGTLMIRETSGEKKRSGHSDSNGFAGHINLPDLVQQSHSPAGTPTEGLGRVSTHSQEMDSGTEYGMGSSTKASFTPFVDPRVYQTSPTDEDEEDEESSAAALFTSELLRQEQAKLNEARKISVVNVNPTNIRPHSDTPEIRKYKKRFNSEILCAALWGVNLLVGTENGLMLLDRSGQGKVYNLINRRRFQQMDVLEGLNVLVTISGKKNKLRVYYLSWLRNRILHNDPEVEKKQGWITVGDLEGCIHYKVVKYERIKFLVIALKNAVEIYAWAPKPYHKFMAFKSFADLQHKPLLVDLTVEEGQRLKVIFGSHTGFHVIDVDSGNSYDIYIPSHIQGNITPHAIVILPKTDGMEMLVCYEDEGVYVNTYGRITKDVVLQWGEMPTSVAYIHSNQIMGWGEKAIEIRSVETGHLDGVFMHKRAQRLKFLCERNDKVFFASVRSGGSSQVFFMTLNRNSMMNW

[2] = biological target: HA-Tnik(WT), full length human Tnik isoform 1 with N-terminal HA epitope tag (human) (UniProt Q9UKE5); assay: as above

Row | Binder | binding [1] | binding [2]
1 | HA-Tnik(M), intermediate domain of Tnik (protein) AYPYDVPDYAIDRTKKKRGEKDETEYEYSGSEEEEEENDSGEPSSILNLPGESTLRRDFLRLQLANKERSEALRRQQLEQQQRENEEHKRQLLAERQKRIEEQKEQRRRLEEQQRREKELRKQQEREQRRHYEEQMRREEERRRAEHEQEYIRRQLEEEQRQLEILQQQLLHEQALLLEYKRKQLEEQRQAERLQRQLKQERDYLVSLQHQRQEQRPVEKKPLYHYKEGMSPSEKPAWAKEVEERSRLNRQSSPAMPHKVANRISDPNLPPRSESFSISGVQPARTPPMLRPVDPQIPHLVAVKSQGPALTASQSVHEQPTKGLSGFQEALNVTSHRVEMPRQNSDPTSENPPLPTRIEKFDRSSWLRQEEDIPPKVPQRTTSISPALARKNSPGNGSALGPRLGSQPIRASNPDLRRTEPILESPLQRTSSGSSSSSSTPSSQPSSQGGSQPGSQAGSSERTRVRANSKSEGSPVLPHEPAKVKPEESRDITRPSRPASYKKAIDEDLTALAKELRELRIEETNRPMKKVTDYSSSSEESESSEEEEEDGESETHDGTVAVSDIPRLIPTGAPGSNEQYNVGMVGTHGLETSHADSFSGSISREGTLMIRETSGEKKRSGHSDSNGFAGHINLPDLVQQSHSPAGTPTEGLGRVSTHSQEMDSGTEYGMGSSTKASFTPFVDPRVYQTSPTDEDEEDEESSAAALFTSELLRQEQAKLNEA | binds | 
2 | FLAG-TRAF2, full length human Traf2 with N-terminal FLAG epitope tag (protein) DYKDDDDKGAAASVTPPGSLELLQPGFSKTLLGTKLEAKYLCSACRNVLRRPFQAQCGHRYCSFCLASILSSGPQNCAACVHEGIYEEGISILESSSAFPDNAARREVESLPAVCPSDGCTWKGTLKEYESCHEGRCPLMLTECPACKGLVRLGEKERHLEHECPERSLSCRHCRAPCCGADVKAHHEVCPKFPLTCDGCGKKKIPREKFQDHVKTCGKCRVPCRFHAIGCLETVEGEKQQEHEVQWLREHLAMLLSSVLEAKPLLGDQSHAGSELLQRCESLEKKTATFENIVCVLNREVERVAMTAEACSRQHRLDQDKIEALSSKVQQLERSIGLKDLAMADLEQKVLEMEASTYDGVFIWKISDFARKRQEAVAGRIPAIFSPAFYTSRYGYKMCLRIYLNGDGTGRGTHLSLFFVVMKGPNDALLRWPFNQKVTLMLLDQNNREHVIDAFRPDVTSSSFQRPVNDMNIASGCPLFCPVSKMEAKNSYVRDDAIFIKAIVDLTGL |  | binds
3 | FLAG-TRAF2(87-501) (protein, human) DYKDDDDKGSSSAFPDNAARREVESLPAVCPSDGCTWKGTLKEYESCHEGRCPLMLTECPACKGLVRLGEKERHLEHECPERSLSCRHCRAPCCGADVKAHHEVCPKFPLTCDGCGKKKIPREKFQDHVKTCGKCRVPCRFHAIGCLETVEGEKQQEHEVQWLREHLAMLLSSVLEAKPLLGDQSHAGSELLQRCESLEKKTATFENIVCVLNREVERVAMTAEACSRQHRLDQDKIEALSSKVQQLERSIGLKDLAMADLEQKVLEMEASTYDGVFIWKISDFARKRQEAVAGRIPAIFSPAFYTSRYGYKMCLRIYLNGDGTGRGTHLSLFFVVMKGPNDALLRWPFNQKVTLMLLDQNNREHVIDAFRPDVTSSSFQRPVNDMNIASGCPLFCPVSKMEAKNSYVRDDAIFIKAIVDLTGL |  | binds
4 | FLAG-TRAF2(272-501) (protein, human) DYKDDDDKGCESLEKKTATFENIVCVLNREVERVAMTAEACSRQHRLDQDKIEALSSKVQQLERSIGLKDLAMADLEQKVLEMEASTYDGVFIWKISDFARKRQEAVAGRIPAIFSPAFYTSRYGYKMCLRIYLNGDGTGRGTHLSLFFVVMKGPNDALLRWPFNQKVTLMLLDQNNREHVIDAFRPDVTSSSFQRPVNDMNIASGCPLFCPVSKMEAKNSYVRDDAIFIKAIVDLTGL |  | binds
5 | HA-Tnik(N2), truncated form of Tnik (enzyme) AYPYDVPDYAMASDSPARSLDEIDLSALRDPAGIFELVELVGNGTYGQVYKGRHVKTGQLAAIKVMDVTGDEEEEIKQEINMLKKYSHHRNIATYYGAFIKKNPPGMDDQLWLVMEFCGAGSVTDLIKNTKGNTLKEEWIAYICREILRGLSHLHQHKVIHRDIKGQNVLLTENAEVKLVDFGVSAQLDRTVGRRNTFIGTPYWMAPEVIACDENPDATYDFKSDLWSLGITAIEMAEGAPPLCDMHPMRALFLIPRNPAPRLKSKKWSKKFQSFIESCLVKNHSQRPATEQLMKHPFIRDQPNERQVRIQLKDHIDRTKKKRGEKDETEYEYSGSEEEEEENDSGEPSSILNLPGESTLRRDFLRLQLANKERSEALRRQQLEQQQRENEEHKRQLLAERQKRIEEQKEQRRRLEEQQRREKELRKQQEREQRRHYEEQMRREEERRRAEHEQEYIRRQLEEEQRQLEILQQQLLHEQALLLEYKRKQLEEQRQAERLQRQLKQERDYLVSLQHQRQEQRPVEKKPLYHYKEGMSPSEKPAWAKEVEERSRLNRQSSPAMPHKVANRISDPNLPPRSESFSISGVQPARTPPMLRPVDPQIPHLVAVKSQGPALTASQSVHEQPTKGLSGFQEALNVTSHRVEMPRQNSDPTSENPPLPTRIEKFDRSSWLRQEEDIPPKVPQRTTSISPALARKNSPGNGSALGPRLGSQPIRASNPDLRRTEPILESPLQRTSSGSSSSSSTPSSQPSSQGGSQPGSQAGSSERTRVRANSKSEGSPVLPHEPAKVKPEESRDITRPSRPASYKKAIDEDLTALAKELRELRIEETNRPMKKVTDYSSSSEESESSEEEEEDGESETHDGTVAVSDIPRLIPTGAPGSNEQYNVGMVGTHGLETSHADSFSGSISREGTLMIRETSGEKKRSGHSDSNGFAGHINLPDLVQQSHSPAGTPTEGLGRVSTHSQEMDSGTEYGMGSSTKASFTPFVDPRVYQTSPTDEDEEDEESSAAALFTSELLRQEQAKLNEA | binds | 

— patent US6562591
